Measured values from publication PMC4761948.

Amino acid sequences for entries named in this document (tags omitted). A change or cut given only in a name is not applied to a line headed by its entry.
UniProt P23771: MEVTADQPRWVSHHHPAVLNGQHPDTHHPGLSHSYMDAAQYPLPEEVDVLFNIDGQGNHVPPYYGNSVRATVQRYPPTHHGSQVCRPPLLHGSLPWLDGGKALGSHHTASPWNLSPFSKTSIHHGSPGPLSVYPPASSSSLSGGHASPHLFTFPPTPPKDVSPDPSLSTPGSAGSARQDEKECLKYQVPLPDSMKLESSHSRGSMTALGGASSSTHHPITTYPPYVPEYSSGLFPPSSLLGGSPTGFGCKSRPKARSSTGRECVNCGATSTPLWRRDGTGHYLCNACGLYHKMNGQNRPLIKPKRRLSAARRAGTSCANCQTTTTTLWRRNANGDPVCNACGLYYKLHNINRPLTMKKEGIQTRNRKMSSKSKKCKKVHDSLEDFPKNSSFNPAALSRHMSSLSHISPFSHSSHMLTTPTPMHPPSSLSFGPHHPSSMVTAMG

Tests used:
[1] = target: GATA3-FLAG (Homo sapiens) (UniProt P23771); test: EMSA; settings: 20 ng GATA3-FLAG alone, 2 ng probe; EMSA as previously described (buffer, salt, pH, temperature not given); 5% nondenaturing polyacrylamide gel; recombinant protein; protein details: C-terminal 3xFLAG; label: radiolabeled
GCM1-FLAG = target: T1, GCM1-FLAG (UniProt Q9NP62); test: EMSA; settings: 20 ng GCM1-FLAG, 2 ng probe, binding not affected by 20-60 ng GATA3-FLAG; EMSA as previously described (buffer, salt, pH, temperature not given); 5% nondenaturing polyacrylamide gel; recombinant protein; protein details: FLAG; label: radiolabeled
T1 sequence (looked up, limits assumed): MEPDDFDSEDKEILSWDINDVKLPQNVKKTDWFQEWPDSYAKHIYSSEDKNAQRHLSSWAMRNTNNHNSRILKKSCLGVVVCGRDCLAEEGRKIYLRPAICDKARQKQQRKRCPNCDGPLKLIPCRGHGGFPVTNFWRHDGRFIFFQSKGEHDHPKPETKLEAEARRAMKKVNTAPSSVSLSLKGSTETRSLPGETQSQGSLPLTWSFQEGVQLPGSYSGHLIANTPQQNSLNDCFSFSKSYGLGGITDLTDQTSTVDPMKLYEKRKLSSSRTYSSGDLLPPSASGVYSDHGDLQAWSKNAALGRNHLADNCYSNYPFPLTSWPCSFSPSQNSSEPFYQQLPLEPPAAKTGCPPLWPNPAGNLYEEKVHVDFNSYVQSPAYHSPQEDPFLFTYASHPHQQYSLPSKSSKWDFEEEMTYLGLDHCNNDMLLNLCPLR

Sequence: CAGTCTGCCCTCATTGTCGG (double strand) [HtrA4-GBS]
- binding result [1]: no binding
- binding result (GCM1-FLAG): binds

Construct, isoform or probe ends are uncertain for at least one entry. For some assays here: Negatives hold for the conditions tested. For some assays here: Where a protein sequence is shown, tags need not be part of it.
